Data: patent publication US20250332176A1, “TREATMENT FOR FIBROSIS AND INHIBITION OF FIBROSIS” (GALMED RESEARCH AND DEVELOPMENT LTD, priority 2022, published 2025)

Test system: pts with pre-diabetes or diabetes and biopsy-proven NASH
Assay: Global phase 2b randomized placebo-controlled ARREST trial, one-year results
Format: in vivo, human
Conditions: 400 mg and 600 mg QD, 1 year
Description: Overweight/obese pts with pre-diabetes or diabetes and biopsy-proven NASH (with NAS≥4; F<4) were included. Liver biopsy and liver fat measurement by MR spectroscopy (LF-MRS) were performed at baseline and week 52. Both read centrally. The primary endpoint was the absolute change from baseline in LF-MRS (600 mg vs. placebo, PLB; mixed model repeated measures). Key secondary endpoints included: NASH resolution without fibrosis worsening, ≥1 stage fibrosis reduction without NASH worsening and ALT reduction. 247 pts from 11 countries (US, Europe, Latin America) were randomized 2:2:1 to Aramchol™ 400 mg QD (N=101), 600 mg QD (N=98) or PLB (N=48). At baseline: 65% females, mean age 54.4 yrs, BMI 32.7 kg/m2, HbA1c 6.6%±1.0% (mean±SD), LF-MRS 28.5%±11.7% (mean±SD); 60% fibrosis stage 2-3 and NAS 5.12±1.00 (mean±SD). 89% of pts completed the study. The results of the study are summarized in FIGS. 16A-16B to FIGS.-20A-20B.

How did the Serum lipid parameters turn out when `CCCCCCCCCCCCCCCCCCCC(=O)N[C@H]1CC[C@@]2(C)[C@@H](C1)C[C@@H](O)[C@@H]1[C@@H]2C[C@H](O)[C@]2(C)[C@@H]([C@H](C)CCC(=O)O)CC[C@@H]12` [Aramchol™, 3β-arachidylamido-7α, 12α-dihydroxy-5β-cholan-24-oic acid] was run?
Its Serum lipid parameters is “did not change”.

And the body weight?
Its body weight is “did not change”.
